Article PMC8750186
These are yes or no findings as the source states them, for the method shown. Binding seen in cells or lysates may run through a third protein. A yes stands for co-enrichment or nearness to the bait. Other partners may have been found.

Amino acid sequences for entries named in this document (tags omitted). Residues count along the entry.
UniProt P08603, residues 19-1231: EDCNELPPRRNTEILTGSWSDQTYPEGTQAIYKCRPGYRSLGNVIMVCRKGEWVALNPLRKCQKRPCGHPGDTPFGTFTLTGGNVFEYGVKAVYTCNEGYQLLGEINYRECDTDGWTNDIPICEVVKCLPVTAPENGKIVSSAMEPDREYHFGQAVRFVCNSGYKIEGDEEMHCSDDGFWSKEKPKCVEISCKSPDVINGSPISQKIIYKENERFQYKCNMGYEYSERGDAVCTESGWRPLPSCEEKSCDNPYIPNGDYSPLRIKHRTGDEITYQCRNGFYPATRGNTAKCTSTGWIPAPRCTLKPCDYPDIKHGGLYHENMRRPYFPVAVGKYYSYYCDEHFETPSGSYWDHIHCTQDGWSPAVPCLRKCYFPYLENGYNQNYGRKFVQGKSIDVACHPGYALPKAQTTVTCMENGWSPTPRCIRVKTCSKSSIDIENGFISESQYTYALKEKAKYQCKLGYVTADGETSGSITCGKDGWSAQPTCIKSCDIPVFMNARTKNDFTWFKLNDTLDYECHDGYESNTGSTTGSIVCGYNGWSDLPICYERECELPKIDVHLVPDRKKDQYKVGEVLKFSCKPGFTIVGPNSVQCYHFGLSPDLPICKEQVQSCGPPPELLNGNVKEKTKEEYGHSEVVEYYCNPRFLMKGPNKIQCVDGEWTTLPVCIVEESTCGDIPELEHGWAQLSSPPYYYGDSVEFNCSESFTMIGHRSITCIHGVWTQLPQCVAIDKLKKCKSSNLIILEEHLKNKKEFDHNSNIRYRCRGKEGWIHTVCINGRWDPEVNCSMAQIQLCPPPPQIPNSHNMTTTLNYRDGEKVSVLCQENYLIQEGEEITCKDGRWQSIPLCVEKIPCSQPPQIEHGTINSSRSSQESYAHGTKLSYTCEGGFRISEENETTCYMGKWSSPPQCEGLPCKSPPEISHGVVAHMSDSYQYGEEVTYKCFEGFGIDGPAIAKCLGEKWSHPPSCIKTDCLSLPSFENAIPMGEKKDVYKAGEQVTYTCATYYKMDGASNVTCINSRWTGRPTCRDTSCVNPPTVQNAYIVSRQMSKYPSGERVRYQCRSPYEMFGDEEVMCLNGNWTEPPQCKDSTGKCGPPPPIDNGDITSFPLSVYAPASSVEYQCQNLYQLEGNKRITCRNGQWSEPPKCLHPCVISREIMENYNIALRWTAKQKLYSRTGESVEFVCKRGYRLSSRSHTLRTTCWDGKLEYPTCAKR
UniProt Q16254: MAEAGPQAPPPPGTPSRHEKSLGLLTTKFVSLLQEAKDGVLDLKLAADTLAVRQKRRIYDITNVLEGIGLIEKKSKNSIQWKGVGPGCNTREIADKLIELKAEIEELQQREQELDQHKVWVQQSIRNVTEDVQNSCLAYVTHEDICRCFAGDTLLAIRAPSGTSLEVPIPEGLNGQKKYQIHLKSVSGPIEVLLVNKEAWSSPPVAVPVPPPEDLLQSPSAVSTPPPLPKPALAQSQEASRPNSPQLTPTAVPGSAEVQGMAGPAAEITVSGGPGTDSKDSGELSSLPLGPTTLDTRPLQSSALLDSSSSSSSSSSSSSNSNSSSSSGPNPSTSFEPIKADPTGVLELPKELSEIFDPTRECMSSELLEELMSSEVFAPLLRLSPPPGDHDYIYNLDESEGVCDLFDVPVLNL
UniProt P16220: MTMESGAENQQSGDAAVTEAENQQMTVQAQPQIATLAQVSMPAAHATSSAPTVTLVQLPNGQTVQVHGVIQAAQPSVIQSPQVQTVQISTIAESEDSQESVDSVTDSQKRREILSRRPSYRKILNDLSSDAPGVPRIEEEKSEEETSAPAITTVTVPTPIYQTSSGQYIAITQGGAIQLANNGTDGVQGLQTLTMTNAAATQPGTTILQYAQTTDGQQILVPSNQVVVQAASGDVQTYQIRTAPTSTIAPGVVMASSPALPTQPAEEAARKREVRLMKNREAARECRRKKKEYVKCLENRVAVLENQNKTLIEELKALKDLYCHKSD
UniProt O00716: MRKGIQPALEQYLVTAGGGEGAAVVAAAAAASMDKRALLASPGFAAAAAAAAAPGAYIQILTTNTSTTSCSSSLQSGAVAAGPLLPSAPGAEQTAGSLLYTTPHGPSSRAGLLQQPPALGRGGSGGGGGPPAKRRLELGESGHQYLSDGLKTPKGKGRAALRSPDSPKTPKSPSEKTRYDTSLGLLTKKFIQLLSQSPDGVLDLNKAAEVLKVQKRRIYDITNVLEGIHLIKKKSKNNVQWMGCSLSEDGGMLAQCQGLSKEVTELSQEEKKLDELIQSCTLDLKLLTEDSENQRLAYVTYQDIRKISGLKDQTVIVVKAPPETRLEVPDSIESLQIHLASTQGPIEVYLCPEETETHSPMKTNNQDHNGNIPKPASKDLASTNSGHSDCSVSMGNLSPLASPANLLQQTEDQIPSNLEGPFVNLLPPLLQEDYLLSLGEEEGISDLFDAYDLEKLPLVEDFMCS
UniProt Q14186: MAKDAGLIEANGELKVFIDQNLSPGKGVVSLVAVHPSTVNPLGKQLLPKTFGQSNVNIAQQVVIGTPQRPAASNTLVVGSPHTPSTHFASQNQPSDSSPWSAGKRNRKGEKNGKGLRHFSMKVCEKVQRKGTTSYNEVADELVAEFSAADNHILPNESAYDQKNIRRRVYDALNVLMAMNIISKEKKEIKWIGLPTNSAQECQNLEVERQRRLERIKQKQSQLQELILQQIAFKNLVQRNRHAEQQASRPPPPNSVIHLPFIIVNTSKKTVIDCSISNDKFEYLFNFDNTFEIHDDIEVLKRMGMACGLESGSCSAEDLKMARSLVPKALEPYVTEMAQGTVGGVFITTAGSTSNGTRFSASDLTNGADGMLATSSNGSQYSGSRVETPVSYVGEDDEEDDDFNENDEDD

The substances below were run against complement factor H (FH) (human (endogenous in hTERT-RPE1)) (UniProt P08603) (assay: affinity purification with mass spectrometry; hTERT-RPE1 lysates (0.5% NP40, TBS, after 48 h in serum free medium) with anti-FH antibody clone C18/3 or control IgG, 1 h 4 °C, Protein G PLUS-Agarose overnight 4 °C, acidic elution, tryptic digest, LC-MS/MS; enrichment over IgG control, FDR < 0.05).

binding	Substance
binds	E2F4 (from UniProt Q16254 1-413)
binds	CREB1 (from UniProt P16220 1-327)
binds	E2F3 (from UniProt O00716 1-465)
binds	TFDP1 (from UniProt Q14186 1-410)
